In patent CN1649900A:
Residue numbers refer to the chain shown, from its start. These are yes or no findings as the source states them, for the method shown. Some entries that bind do so weakly or less than the wild type.

By UniProt entry, the sequences of proteins in these tests, tags left out. Residues count along the entry.
UniProt P07359, residues 17-531: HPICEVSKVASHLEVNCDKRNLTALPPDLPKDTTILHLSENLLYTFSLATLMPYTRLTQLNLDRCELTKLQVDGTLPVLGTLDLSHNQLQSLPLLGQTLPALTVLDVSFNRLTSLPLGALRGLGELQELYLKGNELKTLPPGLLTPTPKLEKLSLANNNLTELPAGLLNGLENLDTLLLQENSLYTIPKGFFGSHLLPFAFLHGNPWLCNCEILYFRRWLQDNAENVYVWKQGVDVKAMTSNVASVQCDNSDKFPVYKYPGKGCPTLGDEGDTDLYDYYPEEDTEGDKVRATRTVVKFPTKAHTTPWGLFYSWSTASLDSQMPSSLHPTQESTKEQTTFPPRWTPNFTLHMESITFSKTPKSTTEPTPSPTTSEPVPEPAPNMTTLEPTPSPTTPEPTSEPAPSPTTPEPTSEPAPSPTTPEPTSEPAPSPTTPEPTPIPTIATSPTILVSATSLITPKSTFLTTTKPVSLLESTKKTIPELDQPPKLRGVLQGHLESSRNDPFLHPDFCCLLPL

B1: Y17 scFv (scFv)
scFv: EVQLVESGGGVVRPGGSLRLSCAASGFTFDDYGMSWVRQAPGKGLEWVSGINWNGGSTGYADSVKGRFTISRDNAKNSLYLQMNSLRAEDTAVYYCARLTHPYFWGQGTLVTVSRGGGGSGGGGSGGGGSSELTQDPAVSVALGQTVRITCQGDSLRSYYASWYQQKPGQAPVLVIYGKNNRPSGIPDRFSGSSSGNTASLTITGAQAEDEADYYCNSRDSSGNHVVFGGGTKLTVLGAAAEQKLISEEDLNGAA
B2: Y1 scFv (human single-chain Fv antibody fragment Y1) (scFv)
scFv: B1 scFv with L99M, T100R, H101A, Y103V, F104I

How the values were obtained:
[1] = target: glycocalicin purified from human platelets (soluble extracellular fragment of GPIbα) (human) (UniProt P07359); assay: Western blot after O-sialoglycoprotein endopeptidase or ficin cleavage
[2] = target: glycocalicin purified from human platelets (soluble extracellular fragment of GPIbα) (human) (UniProt P07359); assay: Western blot
[3] = target: T1, complement compound 4 (CC4) from human plasma (human) (UniProt P0C0L4); assay: immunoreaction with plasma proteins
T1 sequence (looked up): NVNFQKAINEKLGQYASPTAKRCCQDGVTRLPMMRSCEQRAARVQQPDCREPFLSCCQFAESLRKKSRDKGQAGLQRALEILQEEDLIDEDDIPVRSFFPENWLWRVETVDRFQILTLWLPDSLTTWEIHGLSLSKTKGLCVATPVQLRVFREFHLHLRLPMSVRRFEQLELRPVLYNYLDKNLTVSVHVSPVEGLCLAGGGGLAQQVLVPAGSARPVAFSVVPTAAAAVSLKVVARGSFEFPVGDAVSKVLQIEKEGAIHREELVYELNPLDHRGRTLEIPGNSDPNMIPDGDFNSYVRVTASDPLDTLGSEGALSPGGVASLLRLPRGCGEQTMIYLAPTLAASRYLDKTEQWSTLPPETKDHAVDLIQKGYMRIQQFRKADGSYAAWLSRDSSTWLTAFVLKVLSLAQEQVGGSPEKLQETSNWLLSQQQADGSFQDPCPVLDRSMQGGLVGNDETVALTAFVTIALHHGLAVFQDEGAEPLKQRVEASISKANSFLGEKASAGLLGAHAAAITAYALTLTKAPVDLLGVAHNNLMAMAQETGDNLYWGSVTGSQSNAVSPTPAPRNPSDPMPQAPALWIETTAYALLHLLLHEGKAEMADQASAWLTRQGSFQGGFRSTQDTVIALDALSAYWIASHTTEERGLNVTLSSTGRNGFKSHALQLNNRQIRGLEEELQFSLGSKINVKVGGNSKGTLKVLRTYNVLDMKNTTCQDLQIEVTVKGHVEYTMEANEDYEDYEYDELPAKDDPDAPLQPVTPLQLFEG

[4] = target: T1, complement compound 4 (CC4) from human plasma (human); assay: summary
[5] = target: T1, complement compound 4 (CC4) from human plasma (human); assay: binding to human plasma proteins

Binder	binding [1]	binding [2]	binding [3]	binding [4]	binding [5]
B1	binds	binds	–	–	–
B2	–	–	binds	binds	binds
